Drawing on PubChem BioAssay AID488840 (Broad Institute, 2010), this text covers activity change, negative = inhibition for 58 molecules.

Sequences of proteins named here, by UniProt entry; tags and fusion partners are left off. A change or cut given only in a name is not applied to a line headed by its entry.
UniProt O75164: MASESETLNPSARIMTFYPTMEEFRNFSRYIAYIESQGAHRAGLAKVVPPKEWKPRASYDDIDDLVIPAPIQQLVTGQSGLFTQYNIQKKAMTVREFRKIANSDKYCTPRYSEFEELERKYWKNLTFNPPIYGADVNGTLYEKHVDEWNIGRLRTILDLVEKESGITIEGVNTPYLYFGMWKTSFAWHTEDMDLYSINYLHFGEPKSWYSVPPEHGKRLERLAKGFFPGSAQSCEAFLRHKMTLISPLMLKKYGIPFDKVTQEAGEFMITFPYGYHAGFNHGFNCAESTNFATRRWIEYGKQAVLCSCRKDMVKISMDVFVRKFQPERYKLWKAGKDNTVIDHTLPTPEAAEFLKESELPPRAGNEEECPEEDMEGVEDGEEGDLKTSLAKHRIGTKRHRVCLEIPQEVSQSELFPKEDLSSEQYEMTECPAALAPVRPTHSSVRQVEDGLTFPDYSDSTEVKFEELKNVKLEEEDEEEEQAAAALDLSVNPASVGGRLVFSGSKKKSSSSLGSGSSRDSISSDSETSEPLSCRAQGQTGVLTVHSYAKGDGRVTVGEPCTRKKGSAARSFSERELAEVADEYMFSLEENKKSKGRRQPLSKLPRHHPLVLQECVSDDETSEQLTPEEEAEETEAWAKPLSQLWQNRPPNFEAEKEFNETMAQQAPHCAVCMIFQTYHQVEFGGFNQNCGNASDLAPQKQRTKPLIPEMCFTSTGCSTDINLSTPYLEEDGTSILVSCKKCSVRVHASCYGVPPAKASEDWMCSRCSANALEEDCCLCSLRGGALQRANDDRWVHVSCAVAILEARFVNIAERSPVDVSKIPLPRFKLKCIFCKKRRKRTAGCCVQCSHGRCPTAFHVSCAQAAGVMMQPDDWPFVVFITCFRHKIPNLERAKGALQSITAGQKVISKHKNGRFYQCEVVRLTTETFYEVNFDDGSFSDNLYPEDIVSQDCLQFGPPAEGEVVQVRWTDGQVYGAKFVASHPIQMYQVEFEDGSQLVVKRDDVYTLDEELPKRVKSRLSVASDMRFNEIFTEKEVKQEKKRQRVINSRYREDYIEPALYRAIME

About 45 (3%) of roughly 1,400 compounds were called active.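 How the source made its calls: active means half-maximal dose of signal decrease from fit no higher than ten times the top valid tested dose; inconclusive means fit invalid, or curve flat with 30 to 70% inhibition; inactive means the rest.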 The list shows a part of the results. Measured potencies and affinities stand elsewhere.

This test addresses Lysine-specific demethylase 4A (Homo sapiens) (UniProt O75164). The experiment in a line: inhibition of JMJD2A H3K9me3 demethylation – biochemical, DELFIA europium, cherry-picked samples, selectivity assay for GASC-1 inhibitor project, dose response (AID 488840).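 Further: europium signal reports the dimethyl H3K9 product detected by antibody so inhibitors lower it; 0% = median of neutral control wells and -100% = median of positive control wells.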 The note with it: GST-JMJD2A(1-420) H3K9me3 demethylation; at 6 µM (top of the series) unless noted.
Regarding `CCOC(=O)c1sc2nc(N3CCOCC3)c3c(c2c1N)CCN(Cc1ccccc1)C3`, the activity change, negative = inhibition is inactive: 2.62%.

With `O=C(Nc1ccccn1)c1ccc(C(=O)c2ccccc2)cc1`, the activity change, negative = inhibition is inactive: 2.41%.

Consider `Cc1onc(-c2ccccc2)c1C(=O)Nc1c(C)n(C)n(-c2ccccc2)c1=O`, for which the activity change, negative = inhibition was inactive: -0.799%.

For `O=C(N/N=C/c1cc([N+](=O)[O-])cc([N+](=O)[O-])c1O)/C(=C\c1cccs1)NC(=O)c1ccccc1`, the activity change, negative = inhibition is inactive: 1.28%.

Consider `COc1ccc(NC(=O)O/N=C/c2ccccc2)cc1`, for which the activity change, negative = inhibition is inactive: 5.42%.

Turning to `O=C(CCc1ccccc1)c1ccc2c(c1)OCCCO2`, the activity change, negative = inhibition was inactive: -1.66%.

`CN(C)c1nc(C(=O)Nc2ccccc2)nc(N(C)C)n1`: the activity change, negative = inhibition is inactive: -0.74%.

As for `O=S(=O)(NCCSCc1ccc(Cl)c(Cl)c1)c1ccc2c(c1)OCCO2`, the activity change, negative = inhibition is inactive: -6.95%.

With `COc1ccc(NS(=O)(=O)c2cccc(C(=O)OCC(=O)Nc3cc(C)on3)c2)cc1`, the activity change, negative = inhibition was inactive: -0.36%.

For `Cc1noc(C)c1S(=O)(=O)N(C)C[C@H]1Oc2c(NC(=O)Nc3ccc(C(F)(F)F)cc3)cccc2C(=O)N([C@H](C)CO)C[C@@H]1C`, the activity change, negative = inhibition was inactive: -0.632%.

Take `CCOC(=O)c1c(S(=O)(=O)N2CCCC(C(=O)Nc3ccc(C)cn3)C2)c(C)n(C)c1C` (stereo not drawn): the activity change, negative = inhibition is inactive: -4.67%.

For `Cc1ccc(O)c(N=NC2=C(O)CC(C)(C)CC2=O)c1`, the activity change, negative = inhibition was inactive: 6.97%.

For `O=C(NC1CCCCC1)NC1C2CC3CC(C2)CC1C3` (stereo not drawn), the activity change, negative = inhibition is inactive: 7.58%.

Regarding `CC(=O)c1nnn(-c2nc(N3CCCC3)nc(N(c3ccccc3)c3ccccc3)n2)c1C`, the activity change, negative = inhibition is inactive: -2.9%.

Regarding `COc1ccc(C2CC(=O)C=C(NNS(=O)(=O)c3ccc(C)cc3)C2)cc1` (stereo not drawn), the activity change, negative = inhibition is inactive: 6.73%.

On to `CCc1ccc(CCC(=O)Nc2sc3c(c2C#N)CCCC3)o1`, for which the activity change, negative = inhibition was inactive: 2.59%.

On to `CN1N=C(C(F)(F)F)CC1=O`, for which the activity change, negative = inhibition was inactive: -0.844%.

For `COc1ccc(CCNCCN2CCOCC2)cc1`, the activity change, negative = inhibition is inactive: 7.71%.

As for `COc1ccc(CN2CCNC(=O)C2CC(=O)NCc2csc(C(C)C)n2)c(OC)c1` (stereo not drawn), the activity change, negative = inhibition is inactive: -0.902%.

With `O=S(=O)(c1ccc2ccccc2c1)N(CC(O)COCc1ccco1)c1ccccc1` (stereo not drawn), the activity change, negative = inhibition was inactive: -3.17%.

As for `COc1ccc2cc(Br)ccc2c1CC(=O)NCCCN1CCOCC1`, the activity change, negative = inhibition was inactive: 2.24%.

With `COC(=O)[C@]1(C)N[C@H](CN(C)S(=O)(=O)c2ccc(C)cc2)[C@@H]2C(=O)N(Cc3ccccc3)C(=O)[C@@H]21`, the activity change, negative = inhibition was inactive: 8.69%.

As for `C[C@H](CO)N1C[C@H](C)[C@@H](CN(C)C(=O)Nc2ccccc2)Oc2c(NC(=O)c3ccncc3)cccc2C1=O`, the activity change, negative = inhibition is inactive: -5.2%.

`O=c1cnnc(Nc2ccccc2)[nH]1`: the activity change, negative = inhibition was inactive: -3.76%.

For `Cc1ccc(C(=O)Oc2csc(=S)n2C(=O)c2ccc(C)cc2)cc1`, the activity change, negative = inhibition was inactive: -2.83%.

In the case of `Cc1ccccc1NC(=O)C1CC(=O)OC12CCOC(C)(C)C2` (stereo not drawn), the activity change, negative = inhibition is inactive: -0.856%.

Take `COCCn1c(C(C)C)nc2sc3ccccc3c(=O)c2c1=O`: the activity change, negative = inhibition was inactive: 0.716%.

For the molecule `O=C(Oc1ccc(N2C(=O)CCC2=O)cc1)c1ccccc1`, the activity change, negative = inhibition is inactive: -0.204%.

Consider `O=C(O)CCNc1ccc2c(c1)OCCO2`, for which the activity change, negative = inhibition was inactive: 3.65%.

For the molecule `CCc1ccc(NC(=O)C/C(C)=N/NC(=O)COc2ccc(C)cc2Br)cc1`, the activity change, negative = inhibition is inactive: 5.2%.

On to `CCC(=O)N1CCc2cc(S(=O)(=O)CCC(=O)Nc3cccc(F)c3)ccc21`, for which the activity change, negative = inhibition was inactive: 3.52%.

Consider `O=C(O)CCC(=O)Nc1nc2nc(-c3ccccc3)cc(-c3ccccc3)n2n1`, for which the activity change, negative = inhibition is inactive: 5.32%.

For the molecule `CC(C)=CCN1CCN(Cc2cn[nH]c2C2CCCCC2)CC1CCO` (stereo not drawn), the activity change, negative = inhibition was inactive: -1.51%.

Turning to `COc1ccc(CCC(=O)Nc2sccc2C#N)cc1`, the activity change, negative = inhibition is inactive: -0.731%.

With `O=c1cc(NC2CCCCCC2)[nH]c(=O)[nH]1`, the activity change, negative = inhibition is inactive: -9.15%.

On to `O=C(CN1C(=O)NC2(CCOc3ccccc32)C1=O)c1ccc[nH]1` (stereo not drawn), for which the activity change, negative = inhibition was inactive: -1.74%.

Consider `CC(C)CN(C(=O)c1ccc(N2CCCC2=O)cc1)c1c(N)n(Cc2ccccc2)c(=O)[nH]c1=O`, for which the activity change, negative = inhibition was inactive: 8.41%.

`COc1cccc(S(=O)(=O)Nc2cccc(C(=O)N3CCCCCC3)c2)c1`: the activity change, negative = inhibition was inactive: -2.69%.

Regarding `O=C(NNC(=O)c1ccc(SCC2CCCO2)c([N+](=O)[O-])c1)c1ccc(Cl)c([N+](=O)[O-])c1` (stereo not drawn), the activity change, negative = inhibition is inactive: -5.44%.

Regarding `COc1ccc(NC(=O)NC(C)c2ccc3c(c2)OCO3)c(OC)c1` (stereo not drawn), the activity change, negative = inhibition was inactive: -3.13%.

In the case of `CCCn1c(SCC(=O)Nc2c(C)cccc2CC)nnc1C(C)C`, the activity change, negative = inhibition is inactive: 2.86%.

Take `Cc1cc(Cl)ccc1OCC(=O)NCCCN1CCOCC1`: the activity change, negative = inhibition was inactive: 0.331%.

Consider `c1ccc(-c2csc(-n3cccn3)n2)cc1`, for which the activity change, negative = inhibition is inactive: -5.8%.

Turning to `COc1ccc(C(=O)Nc2ncc3c(n2)CC(c2ccco2)CC3=O)cc1` (stereo not drawn), the activity change, negative = inhibition is inactive: 2.4%.

On to `COc1ccc(OCC(=O)N/N=C/C(C)=C/c2ccco2)c(Br)c1`, for which the activity change, negative = inhibition is inactive: -1.99%.

`O=C(O)c1ccc2c(c1)nnn2C1CCCCC1`: the activity change, negative = inhibition is inactive: 3.78%.

As for `COC(=O)C1CC(O)CN1C(=O)NC1CCCCC1` (stereo not drawn), the activity change, negative = inhibition is inactive: -1.32%.

`N#CCCCCN1c2cccc3cccc(c23)S1(=O)=O`: the activity change, negative = inhibition is inactive: 0.123%.

Turning to `COc1ccc(NC(=O)N(C)C[C@H]2Oc3c(NS(=O)(=O)c4cccs4)cccc3C(=O)N([C@H](C)CO)C[C@@H]2C)cc1`, the activity change, negative = inhibition is inactive: 0.615%.

Take `CCCn1c2ccccc2c2nnc(SCC(=O)Nc3c(C)n(C)n(-c4ccccc4)c3=O)nc21`: the activity change, negative = inhibition is inactive: 0.443%.

As for `COc1ccccc1Cc1nnc(NC(=O)C2CCN(C(=O)c3ccco3)CC2)s1`, the activity change, negative = inhibition is inactive: -1.48%.

For the molecule `CC1(C)CC2(CC(C)(C)N1)OC(=O)N1CCc3ccccc3C12C` (stereo not drawn), the activity change, negative = inhibition is inactive: -5.51%.

Regarding `CC(C)(C)c1ccc(S(=O)(=O)NCc2ccc(C(=O)N3CCCC3)cc2)cc1`, the activity change, negative = inhibition was inactive: -1.01%.

`CSc1nnnn1CCn1nnnc1SC`: the activity change, negative = inhibition is inactive: 2.54%.

For `COc1cc(/C=N/N2CCN(c3ccccc3OC)CC2)ccc1O`, the activity change, negative = inhibition was inactive: -6.9%.

For `COc1ccc(-c2n[nH]c(=S)n2C2CCCCC2)cc1`, the activity change, negative = inhibition was inactive: -54.1%.

In the case of `Nc1nc(C2CC(=O)OC23CCCCC3)cs1` (stereo not drawn), the activity change, negative = inhibition is inactive: -2.84%.

Regarding `Cc1cc(Cl)ccc1OCC(=O)N1CCCCC1`, the activity change, negative = inhibition is inactive: 2.36%.
